Results reported in patent US11771669B2, “Topical composition and delivery system and its use” (SBG MEDICAL TECHNOLOGIES, INC., priority 2012, dated 2023).

Settings: during the study and within 24 h after; 34 subjects, 1 mL topical at 0 and 4 h

SMILES: CCN(CC)CC(=O)Nc1c(C)cccc1C [lidocaine, 2-(diethylamino)-N-(2,6-dimethylphenyl)acetamide]
- Adverse effects / clinical signs of toxicity (in words): not reported
